According to paper PMC11951083, “Highly Specific Miniaturized Fluorescent Monoacylglycerol Lipase Probes Enable Translational Research” (Journal of the American Chemical Society, 2025):

Tested on: HT-29 cells
Test: Confocal colocalization with ER-Tracker Red in live HT-29 cells
Type: cell-based, human
Details: costaining with ER-Tracker red, probe 150 nM

Row | Structure (SMILES) | Pearson correlation coefficient r
1 | O=C(O[C@H](CO)C(F)(F)F)N1CC2(CC(CC3=C4C=CC=[N+]4[B-](F)(F)n4cccc43)C2)C1 [Compound 1] | 0.98
2 | O=C(N1CC2(CC(CC3=C4C=CC=[N+]4[B-](F)(F)n4cccc43)C2)C1)N1CC2(CC(n3cnc(C4CC4)n3)C2)C1 [Compound 5] | 0.87
